The values that follow come from PubChem BioAssay AID2685 (National Center for Advancing Translational Sciences (NCATS), 2010).

The list shows a part of the results. These are further read-outs of the screen, such as a control signal, another cell line or another target. No call is given for them. The list favours compounds with an active or inconclusive main result. Words in brackets tell the shape of the fitted curve; partial curves, single points and poor fits give uncertain potencies.

The assay in a line: qHTS Assay for Lipid Storage Modulators in Drosophila S3 Cells.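 For cell number change: cells counted by Cell Tracker Red CMTPX staining in the red channel.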 The note with it: BODIPY lipid droplet fluorescence, 18-24 h; for cell number change: measured here: cell count max response, cells fed with added oleic acid. The procedure, abridged:
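Laser-scanning cytometry quantifies lipid droplet accumulation (500–530 nm total intensity; droplet/cell object ratio) in oleic acid-fed (400 uM added) Drosophila S3 cells treated with a concentration series. 20 uM Triacsin C defined 100% inhibition.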
(In qHTS, concentration-response curves come from the screen itself.)

Where [1] appears, read: measured here: lipid fluorescence (Fed channel) AC50, cells fed with added oleic acid.
The mark [2] stands for this setting: measured here: cell number channel AC50, cells fed with added oleic acid.

Regarding `COc1cccc(NC(=O)CN(C)C(=O)CCCc2nc3ccccc3c(=O)[nH]2)c1`, the cell number change is 0.259%.
The AC50 is the concentration giving half of the maximal activity seen. Low readings indicate activity at low concentration, high ones activity only at high concentration. As for `O=C(c1ccc(N2CCN(C(=O)c3ccc(F)cc3F)CC2)cc1)c1cccc(F)c1`, the cell number change was -15%. In addition, the AC50 under setting [1] was 29.1 µM [falling, single point].
`CSc1ccccc1NC(=O)c1cc2ncc(Br)cn2n1`: the cell number change was 15.9%. Besides, the AC50 under setting [1] was 1.12 µM [rising, single point].
Turning to `CCOC(=O)Cc1c(C)nc(-c2ccccc2)[nH]c1=O`, the cell number change is 4.59%. The AC50 under setting [2] was 1.3 µM [falling, partial curve].
Regarding `COc1ccc(CN(C)C(=O)c2ccc(NC(=O)CC3SC(N4CCCC4)=NC3=O)cc2)c(OC)c1` (stereo not given), the cell number change was determined as 22.5%.
On to `CC(=O)Nc1ccc(NC(=O)CCn2c(=S)oc3ccccc32)cc1`, for which the half-maximal activity concentration (AC50) under setting [2] was 3.26 µM [rising, partial curve].
For the compound `COc1ccc(/C=C2\C(=O)NCC(=O)N2Cc2ccccc2)cc1`, the cell number change was -49%. Further, the AC50 under setting [2] is 16.4 µM [falling, partial curve].
Consider `Cc1nnc(NC(=O)CSc2nc(N)c(NC(=O)c3cccs3)c(=O)[nH]2)s1`, for which the cell number change is -0.815%. Moreover, under setting [1], the AC50 was 0.13 µM [falling, full curve, poor fit].
For the compound `O=C(c1cncc(Br)c1)N1CCc2ccccc2C1`, the cell number change stood at 64.1%. For the same compound, the AC50 under setting [2] was 11.6 µM [rising, partial curve]. In addition, under setting [1], the AC50 was 13 µM [rising, partial curve].
For `CCc1ccccc1N(C)S(=O)(=O)c1ccc(-c2cc(C)no2)s1`, the cell number change was -5.9%. Further, the AC50 under setting [1] is 29.1 µM [falling, single point].
Regarding `CCS(=O)(=O)N1CCC(C(=O)NCc2ccc(F)cc2Cl)CC1`, the cell number change is -8.77%. For the same compound, under setting [1], the AC50 is 0.103 µM [falling, partial curve, poor fit].
Consider `CCc1nc(C#N)c(N2CCOCC2)o1`, for which the cell number change was -7.54%.
In the case of `Cc1ccc(NC(=O)Cn2nnc(-c3ccccc3NC(=O)c3cccs3)n2)cc1`, the cell number change was -3.24%. Further, the AC50 under setting [1] was 0.461 µM [rising, partial curve, poor fit].
For the compound `Cc1ccccc1NC(=O)CSc1nnc(-c2ccccn2)o1`, the cell number change stood at 9.4%. The AC50 under setting [1] was 3.26 µM [falling, full curve].
As to `Cc1ccccc1CNC(=O)Cn1cnc(S(=O)(=O)N2CCCC2)c1`, the cell number change is -17.4%. Besides, under setting [1], the AC50 was 0.259 µM [falling, partial curve, poor fit].
On to `CCc1ccc(C(=O)CN2C(=O)NC3(CCc4ccccc43)C2=O)cc1` (stereo not given), for which the cell number change was -2.63%. Also, the AC50 under setting [1] was 0.103 µM [rising, full curve, poor fit].
Consider `O=C(CSCc1ccccc1)Nc1ccc(F)c(F)c1`, for which the cell number change was -29.6%. The AC50 under setting [1] was 14.6 µM [falling, single point].
On to `O=C(CN1CCN(C(=O)c2ccco2)CC1)Nc1ccc2c(c1)OCCO2`, for which the cell number change amounted to 20.4%. The AC50 under setting [1] is 16.4 µM [rising, single point].
`C1CCC(c2nn3c(-c4n[nH]c5c4CCC5)nnc3s2)CC1`: the cell number change was -32.7%. In addition, under setting [2], the AC50 was 1.3 µM [falling, full curve, poor fit].
Consider `O=c1cc2[nH]c3ccccc3c(=O)n2nc1-c1ccccc1`, for which the cell number change worked out at 7.22%. The AC50 under setting [1] is 0.291 µM [falling, partial curve, poor fit].
As to `CCOCC(O)CS(=O)Cc1ccccc1` (stereo not given), the cell number change was found to be 0.828%. For the same compound, the AC50 under setting [1] is 0.0731 µM [falling, full curve, poor fit].
As to `Cc1cccc(C)c1NC(=O)CN(C)C(C)C(=O)Nc1ccccc1-c1ccccc1` (stereo not given), the cell number change is -8.06%.
Regarding `COc1ccc(CNC(=O)c2cc(=O)c3cc(C)ccc3o2)cc1`, the cell number change was -44.2%. The AC50 under setting [2] was 29.1 µM [falling, single point]. Moreover, under setting [1], the AC50 was 32.6 µM [falling, single point].
On to `COc1ccc(CNc2nc(C)cc(C)c2C#N)cc1`, for which the cell number change worked out at 12%. Moreover, the AC50 under setting [1] is 29.1 µM [rising, single point].
Take `Cn1c(=NC(=O)C2CC2)sc2cc(F)cc(F)c21`: the cell number change was -6.57%.
For `O=c1oc2ccccc2cc1-c1csc(Cc2nc(-c3ccc(Br)cc3)cs2)n1`, the AC50 under setting [2] was 0.411 µM [rising, partial curve, poor fit] and the AC50 under setting [1] is 0.411 µM [rising, partial curve, poor fit].
In the case of `CCCc1[nH]n(-c2ccc([N+](=O)[O-])cc2)c(=O)c1C=NCCc1ccc(OC)c(OC)c1`, the cell number change amounted to 16.5%. Also, the AC50 under setting [1] was 20.6 µM [rising, single point].
For `Cc1ccc2oc(=O)c3cc(C(=O)NCCCN4CCCC(C)C4)sc3c2c1` (stereo not given), the cell number change came to 22.4%. Under setting [1], the AC50 is 29.1 µM [rising, partial curve].
Take `O=C(Nc1cccc(F)c1)c1ccc(S(=O)(=O)N2CCCCC2)cc1`: the cell number change worked out at 48.4%. In addition, the AC50 under setting [2] was 20 µM [rising, partial curve, poor fit]. Besides, the AC50 under setting [1] was 7.94 µM [falling, partial curve, poor fit].
As for `CCC(C)[C@H]1CNCCN1CCC12CC3CC(CC(C3)C1)C2` (stereo not given in full), the cell number change is -7.01%. Also, the AC50 under setting [1] is 3.66 µM [rising, single point].
Regarding `CCOC(=O)c1sc(NC(=O)c2ccco2)c(C#N)c1C`, the cell number change is -1.1%. In addition, the AC50 under setting [1] is 18.4 µM [rising, single point].
As to `CCC(=O)c1ccc(CCCCCC(=O)O)s1`, the cell number change is -16.1%. Further, the AC50 under setting [1] was 2.91 µM [falling, partial curve, poor fit].
Consider `COc1ccccc1NC(=S)NC(=O)CCCOc1ccc(Cl)cc1Cl`, for which the cell number change was -3.93%.
Consider `Fc1ccc(-c2cc(C(F)(F)F)nc(NCC3CCCO3)n2)cc1` (stereo not given), for which the cell number change was -42.5%. Further, the AC50 under setting [2] was 18.4 µM [falling, partial curve, poor fit].
Turning to `COc1ccc(COC(=O)c2cc(S(=O)(=O)N3CCCCC3)ccc2N2CCOCC2)cc1`, the cell number change was -3.59%. In addition, under setting [1], the AC50 is 3.26 µM [rising, partial curve].
`Cc1ccc(-n2c(C)cc(C(=O)CN3CCOCC3)c2C)cc1`: the AC50 under setting [1] is 6.51 µM [rising, single point].
Turning to `O=C(CSc1nnnn1-c1ccccc1Cl)Nc1ccc2c(c1)OCCO2`, the cell number change turned out to be 25.3%.
Turning to `O=S(=O)(Nc1cccc(-c2cn3c(n2)SCC3)c1)c1cccs1`, the cell number change stood at 32.4%. Under setting [2], the AC50 is 0.411 µM [rising, full curve].
On to `CCCOC(=O)Nc1ccc(C(N)=O)cc1`, for which the cell number change was -0.41%. For the same compound, the AC50 under setting [2] is 0.231 µM [falling, full curve].
Take `NC(=O)C1CCCN(C(=S)NCc2ccc3c(c2)OCO3)C1` (stereo not given): the cell number change turned out to be 10.8%. Also, under setting [2], the AC50 is 0.731 µM [falling, single point].
Turning to `O=C1CCCc2nc(NCc3ccco3)ncc21`, the cell number change is -0.434%.
